In the supplement of paper PMC10849652:
The list shows a part of the results.

Amino acid sequences for entries named in this document (tags omitted). A change or cut given only in a name is not applied to a line headed by its entry.
UniProt Q8IVD9: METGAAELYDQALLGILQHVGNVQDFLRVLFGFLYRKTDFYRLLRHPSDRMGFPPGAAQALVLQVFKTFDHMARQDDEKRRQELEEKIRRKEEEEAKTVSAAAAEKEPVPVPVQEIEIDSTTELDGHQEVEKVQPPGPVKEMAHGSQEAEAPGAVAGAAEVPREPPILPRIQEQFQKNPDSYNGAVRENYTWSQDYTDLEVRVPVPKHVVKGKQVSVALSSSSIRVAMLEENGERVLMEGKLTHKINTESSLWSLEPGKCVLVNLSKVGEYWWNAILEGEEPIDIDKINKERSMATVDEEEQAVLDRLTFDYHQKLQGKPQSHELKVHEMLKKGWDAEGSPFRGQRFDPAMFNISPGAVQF
UniProt O95989: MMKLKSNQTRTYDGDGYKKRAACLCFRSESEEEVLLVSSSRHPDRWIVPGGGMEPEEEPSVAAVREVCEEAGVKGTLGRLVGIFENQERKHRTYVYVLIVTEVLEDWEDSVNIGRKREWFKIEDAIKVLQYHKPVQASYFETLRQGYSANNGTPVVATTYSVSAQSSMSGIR
UniProt Q9H857: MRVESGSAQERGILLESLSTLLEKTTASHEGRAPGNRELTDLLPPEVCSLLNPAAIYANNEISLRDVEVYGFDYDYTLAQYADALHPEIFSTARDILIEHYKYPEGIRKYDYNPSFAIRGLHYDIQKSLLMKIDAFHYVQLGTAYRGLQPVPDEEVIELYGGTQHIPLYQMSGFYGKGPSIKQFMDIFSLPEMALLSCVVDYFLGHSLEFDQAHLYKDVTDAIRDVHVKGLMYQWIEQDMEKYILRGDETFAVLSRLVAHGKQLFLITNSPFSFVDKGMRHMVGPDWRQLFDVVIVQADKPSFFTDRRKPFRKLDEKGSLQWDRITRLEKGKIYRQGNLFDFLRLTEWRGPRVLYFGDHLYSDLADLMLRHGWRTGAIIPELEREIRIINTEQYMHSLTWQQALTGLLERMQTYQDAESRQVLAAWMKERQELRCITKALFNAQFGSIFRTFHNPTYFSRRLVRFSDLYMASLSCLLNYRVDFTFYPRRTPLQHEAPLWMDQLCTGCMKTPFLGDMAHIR
UniProt Q6GQQ9: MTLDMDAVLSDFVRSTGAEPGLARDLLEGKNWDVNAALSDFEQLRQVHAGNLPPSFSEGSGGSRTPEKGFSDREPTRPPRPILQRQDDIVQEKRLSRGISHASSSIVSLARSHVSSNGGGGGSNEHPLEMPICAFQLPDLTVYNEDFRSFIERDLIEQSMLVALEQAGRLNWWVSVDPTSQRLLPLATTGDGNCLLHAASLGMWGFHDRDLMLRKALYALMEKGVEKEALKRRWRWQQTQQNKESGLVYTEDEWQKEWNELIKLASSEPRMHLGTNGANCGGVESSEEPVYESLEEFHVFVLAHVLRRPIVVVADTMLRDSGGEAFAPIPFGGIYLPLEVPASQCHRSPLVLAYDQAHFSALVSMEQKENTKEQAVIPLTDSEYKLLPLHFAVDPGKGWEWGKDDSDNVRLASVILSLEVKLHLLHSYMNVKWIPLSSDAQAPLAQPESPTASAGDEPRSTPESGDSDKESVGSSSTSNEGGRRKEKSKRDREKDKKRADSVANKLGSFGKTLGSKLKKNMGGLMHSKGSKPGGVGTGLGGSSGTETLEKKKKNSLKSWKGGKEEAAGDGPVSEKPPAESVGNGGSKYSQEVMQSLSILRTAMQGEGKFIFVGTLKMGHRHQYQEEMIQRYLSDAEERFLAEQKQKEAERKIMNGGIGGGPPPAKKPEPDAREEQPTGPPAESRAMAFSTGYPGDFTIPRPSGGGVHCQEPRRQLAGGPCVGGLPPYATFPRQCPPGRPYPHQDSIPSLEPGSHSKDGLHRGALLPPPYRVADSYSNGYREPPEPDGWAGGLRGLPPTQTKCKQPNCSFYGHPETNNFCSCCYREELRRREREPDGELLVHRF
UniProt Q8NFH3: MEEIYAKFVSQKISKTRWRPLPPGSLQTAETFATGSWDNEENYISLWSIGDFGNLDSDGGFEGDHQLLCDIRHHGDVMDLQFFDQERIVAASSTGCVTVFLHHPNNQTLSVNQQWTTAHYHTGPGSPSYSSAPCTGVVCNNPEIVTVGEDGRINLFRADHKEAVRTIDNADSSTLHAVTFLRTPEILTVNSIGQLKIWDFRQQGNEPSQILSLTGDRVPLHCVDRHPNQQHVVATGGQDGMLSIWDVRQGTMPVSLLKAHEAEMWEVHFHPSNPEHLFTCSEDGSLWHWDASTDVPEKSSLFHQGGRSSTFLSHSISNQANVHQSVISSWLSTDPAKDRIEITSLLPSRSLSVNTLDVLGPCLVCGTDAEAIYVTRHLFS
UniProt Q96HP4: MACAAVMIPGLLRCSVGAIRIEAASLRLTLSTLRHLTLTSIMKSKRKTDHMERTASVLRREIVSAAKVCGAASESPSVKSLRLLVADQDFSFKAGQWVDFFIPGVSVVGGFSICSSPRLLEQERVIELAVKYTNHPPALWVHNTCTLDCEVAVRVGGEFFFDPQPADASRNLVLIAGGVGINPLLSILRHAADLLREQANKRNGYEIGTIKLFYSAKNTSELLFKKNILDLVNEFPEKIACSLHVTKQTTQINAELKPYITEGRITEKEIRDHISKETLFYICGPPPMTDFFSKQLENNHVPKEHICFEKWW
UniProt Q5SWX8: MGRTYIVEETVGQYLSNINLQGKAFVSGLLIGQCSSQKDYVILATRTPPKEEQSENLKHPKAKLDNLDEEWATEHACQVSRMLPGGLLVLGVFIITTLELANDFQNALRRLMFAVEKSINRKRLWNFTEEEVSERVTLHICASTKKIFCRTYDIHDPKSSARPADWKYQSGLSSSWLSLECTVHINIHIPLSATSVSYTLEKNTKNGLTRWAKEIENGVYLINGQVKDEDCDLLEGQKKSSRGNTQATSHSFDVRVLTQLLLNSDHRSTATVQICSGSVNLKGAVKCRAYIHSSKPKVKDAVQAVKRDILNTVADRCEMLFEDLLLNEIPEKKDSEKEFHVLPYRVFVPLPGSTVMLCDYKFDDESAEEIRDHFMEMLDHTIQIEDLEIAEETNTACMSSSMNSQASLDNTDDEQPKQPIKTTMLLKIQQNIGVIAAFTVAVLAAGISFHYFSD
UniProt P55809: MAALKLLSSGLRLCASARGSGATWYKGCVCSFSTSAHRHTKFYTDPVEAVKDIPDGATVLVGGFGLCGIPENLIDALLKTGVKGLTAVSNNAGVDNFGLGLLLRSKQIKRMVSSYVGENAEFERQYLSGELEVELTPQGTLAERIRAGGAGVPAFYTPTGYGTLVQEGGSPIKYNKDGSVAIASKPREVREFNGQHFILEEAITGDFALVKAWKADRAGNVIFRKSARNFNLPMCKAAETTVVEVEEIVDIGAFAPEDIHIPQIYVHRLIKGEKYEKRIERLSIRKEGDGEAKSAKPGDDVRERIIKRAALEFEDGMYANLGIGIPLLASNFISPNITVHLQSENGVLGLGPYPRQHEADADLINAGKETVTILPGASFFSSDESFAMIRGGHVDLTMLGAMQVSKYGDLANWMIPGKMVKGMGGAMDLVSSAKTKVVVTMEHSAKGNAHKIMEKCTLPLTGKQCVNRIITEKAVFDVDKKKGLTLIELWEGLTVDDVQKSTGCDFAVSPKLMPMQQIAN
UniProt Q86UY8: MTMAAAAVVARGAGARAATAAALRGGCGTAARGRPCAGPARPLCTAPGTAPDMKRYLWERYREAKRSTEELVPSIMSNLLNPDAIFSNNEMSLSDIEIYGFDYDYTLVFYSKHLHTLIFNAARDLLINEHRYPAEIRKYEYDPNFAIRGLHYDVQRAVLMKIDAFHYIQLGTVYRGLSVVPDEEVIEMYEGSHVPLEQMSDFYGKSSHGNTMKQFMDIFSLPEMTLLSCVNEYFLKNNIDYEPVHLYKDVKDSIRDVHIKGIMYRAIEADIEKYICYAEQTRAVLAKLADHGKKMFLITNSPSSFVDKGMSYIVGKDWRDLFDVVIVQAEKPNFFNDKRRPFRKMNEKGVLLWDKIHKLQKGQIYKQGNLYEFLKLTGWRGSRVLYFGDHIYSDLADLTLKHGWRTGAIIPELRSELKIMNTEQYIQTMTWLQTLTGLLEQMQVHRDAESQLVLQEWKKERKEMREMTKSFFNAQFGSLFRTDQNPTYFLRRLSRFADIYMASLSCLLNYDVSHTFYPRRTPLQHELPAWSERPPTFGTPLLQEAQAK
UniProt O43482, whole entry, looked up: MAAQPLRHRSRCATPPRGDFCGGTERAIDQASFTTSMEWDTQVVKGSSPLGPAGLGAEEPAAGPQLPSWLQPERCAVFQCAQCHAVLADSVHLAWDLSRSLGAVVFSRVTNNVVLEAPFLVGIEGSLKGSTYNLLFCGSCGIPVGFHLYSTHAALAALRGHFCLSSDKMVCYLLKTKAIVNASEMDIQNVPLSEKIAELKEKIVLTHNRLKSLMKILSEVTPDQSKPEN
UniProt P61970, whole entry, looked up: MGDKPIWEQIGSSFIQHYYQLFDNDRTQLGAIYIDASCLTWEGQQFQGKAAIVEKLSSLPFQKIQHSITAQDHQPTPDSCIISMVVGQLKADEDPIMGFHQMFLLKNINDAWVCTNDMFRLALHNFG
UniProt Q9UQ80: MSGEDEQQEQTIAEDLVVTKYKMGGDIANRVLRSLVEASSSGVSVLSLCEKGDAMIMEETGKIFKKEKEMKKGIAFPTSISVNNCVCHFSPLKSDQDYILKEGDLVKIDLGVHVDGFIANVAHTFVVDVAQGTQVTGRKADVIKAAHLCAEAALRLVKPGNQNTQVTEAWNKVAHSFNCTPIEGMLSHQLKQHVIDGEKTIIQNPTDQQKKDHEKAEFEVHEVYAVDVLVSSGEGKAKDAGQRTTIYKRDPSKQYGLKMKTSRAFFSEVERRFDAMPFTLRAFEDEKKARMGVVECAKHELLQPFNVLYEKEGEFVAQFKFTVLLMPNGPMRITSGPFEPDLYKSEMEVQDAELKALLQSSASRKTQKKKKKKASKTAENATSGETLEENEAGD
UniProt Q96RS6: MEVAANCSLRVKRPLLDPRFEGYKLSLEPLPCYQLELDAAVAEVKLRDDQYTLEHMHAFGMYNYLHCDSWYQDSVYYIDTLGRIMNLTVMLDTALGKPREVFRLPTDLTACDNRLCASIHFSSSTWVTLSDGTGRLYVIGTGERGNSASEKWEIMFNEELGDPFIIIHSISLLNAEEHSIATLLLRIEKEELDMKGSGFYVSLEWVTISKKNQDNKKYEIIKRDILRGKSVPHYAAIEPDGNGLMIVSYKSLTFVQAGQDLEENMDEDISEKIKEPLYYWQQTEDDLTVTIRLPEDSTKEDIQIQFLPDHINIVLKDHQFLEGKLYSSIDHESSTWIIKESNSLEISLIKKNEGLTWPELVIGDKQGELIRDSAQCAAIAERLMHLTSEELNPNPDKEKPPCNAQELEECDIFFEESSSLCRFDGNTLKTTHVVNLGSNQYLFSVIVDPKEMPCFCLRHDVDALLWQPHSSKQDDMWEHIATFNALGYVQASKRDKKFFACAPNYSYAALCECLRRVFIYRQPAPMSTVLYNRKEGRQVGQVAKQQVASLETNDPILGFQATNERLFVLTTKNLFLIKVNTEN
UniProt P49902: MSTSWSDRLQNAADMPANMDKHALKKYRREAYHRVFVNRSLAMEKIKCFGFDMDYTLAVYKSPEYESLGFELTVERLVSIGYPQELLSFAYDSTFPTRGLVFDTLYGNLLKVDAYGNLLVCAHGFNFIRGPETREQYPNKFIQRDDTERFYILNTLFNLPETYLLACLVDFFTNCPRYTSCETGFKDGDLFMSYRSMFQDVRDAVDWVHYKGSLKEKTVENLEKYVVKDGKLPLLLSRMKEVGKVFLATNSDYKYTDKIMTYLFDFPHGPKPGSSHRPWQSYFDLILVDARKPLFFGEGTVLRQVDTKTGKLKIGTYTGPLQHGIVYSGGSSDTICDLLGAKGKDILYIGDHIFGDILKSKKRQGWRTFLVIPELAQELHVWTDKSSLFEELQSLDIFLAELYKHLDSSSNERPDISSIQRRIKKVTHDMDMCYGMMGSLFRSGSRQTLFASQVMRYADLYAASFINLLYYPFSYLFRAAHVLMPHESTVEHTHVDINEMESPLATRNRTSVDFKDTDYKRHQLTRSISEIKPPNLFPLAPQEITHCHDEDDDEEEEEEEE
UniProt Q9NV35: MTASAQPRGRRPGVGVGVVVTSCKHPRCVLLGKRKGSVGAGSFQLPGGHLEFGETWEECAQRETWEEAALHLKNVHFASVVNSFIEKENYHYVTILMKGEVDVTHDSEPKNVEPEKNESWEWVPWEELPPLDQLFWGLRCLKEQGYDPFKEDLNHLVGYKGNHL
UniProt Q96MG7: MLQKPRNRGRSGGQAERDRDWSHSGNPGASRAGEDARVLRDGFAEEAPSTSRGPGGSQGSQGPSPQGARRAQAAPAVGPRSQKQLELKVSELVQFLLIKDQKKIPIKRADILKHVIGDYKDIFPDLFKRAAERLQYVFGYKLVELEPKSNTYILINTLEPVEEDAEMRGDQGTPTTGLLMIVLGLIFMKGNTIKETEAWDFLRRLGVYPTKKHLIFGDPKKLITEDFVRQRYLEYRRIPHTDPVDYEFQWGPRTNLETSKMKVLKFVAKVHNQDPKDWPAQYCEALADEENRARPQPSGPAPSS

Assays:
Experiment in all cases: log2 fold change, soluble protein after heating vs DMSO (PISA); higher = thermal stabilisation; K562 cells, 10 uM, 30 min; active = over 0.2 and 3.5 SD of the protein, either way, in both replicates (recomputed)
[1] = compound: CS(=O)(=O)c1ccc(-c2cnc(N)c(C(=O)Nc3ccccc3)n2)cc1
How it was run: (§1)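 For each measurement, 10 μM compound was applied for 30 min to K562 cells at 2×10^6 cells/mL. Aliquots were heated for 3 min across 48°C-58°C, pooled, and extracted in PBS with 0.5% NP-40 at 4°C; the supernatant after 21,000xg for 90 min was soluble protein. This was quantified by TMTpro 16plex LC-MS/MS with channel sums equalised, and thermal stability was reported relative to control samples from duplicates, on a log2 fold-change scale.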

crizotinib = compound: C[C@@H](Oc1cc(-c2cnn(C3CCNCC3)c2)cnc1N)c1c(Cl)ccc(F)c1Cl [crizotinib]
How it was run: as §1

[2] = compound: C[C@@H]1COCCN1C2=NC(=NC(=C2)C3(CC3)S(=O)(=O)C)C4=C5C=CNC5=CC=C4
How it was run: as §1

[3] = compound: C[C@H](C1=CC=C(C=C1)C(=O)NC2=C3C=CNC3=NC=C2)N
How it was run: as §1

duvelisib = compound: C[C@H](Nc1ncnc2nc[nH]c12)c1cc2cccc(Cl)c2c(=O)n1-c1ccccc1 [duvelisib]
How it was run: as §1

gandotinib = compound: Cc1cc(Nc2cc(CN3CCOCC3)c3nc(C)c(Cc4ccc(Cl)cc4F)n3n2)n[nH]1 [gandotinib]
How it was run: as §1

tozasertib = compound: Cc1cc(Nc2cc(N3CCN(C)CC3)nc(Sc3ccc(NC(=O)C4CC4)cc3)n2)n[nH]1 [tozasertib]
How it was run: as §1

[4] = compound: Cc1cc(SCc2sc(-c3ccc(C(F)(F)F)cc3)nc2C)ccc1OCC(=O)O
How it was run: as §1

doramapimod = compound: Cc1ccc(-n2nc(C(C)(C)C)cc2NC(=O)Nc2ccc(OCCN3CCOCC3)c3ccccc23)cc1 [doramapimod]
How it was run: as §1

ispinesib = compound: Cc1ccc(C(=O)N(CCCN)[C@@H](c2nc3cc(Cl)ccc3c(=O)n2Cc2ccccc2)C(C)C)cc1 [ispinesib]
How it was run: as §1

Measured: log2 fold change

NUDCD3 (UniProt Q8IVD9)
inactive: [1] 0.031 | crizotinib 0.012 | [2] 0.054 | [3] -0.011 | duvelisib 0.002 | gandotinib -0.045 | tozasertib 0.032 | [4] 0.096 | doramapimod 0.007 | ispinesib -0.139

NUDT3 (UniProt O95989)
inactive: [1] 0.031 | crizotinib 0.042 | [2] 0.006 | [3] -0.104 | duvelisib 0.032 | gandotinib -0.075 | tozasertib -0.061 | [4] -0.064 | doramapimod 0.012 | ispinesib 0.015

NT5DC2 isoform 2 (UniProt Q9H857)
inactive: [1] 0 | crizotinib 0.048 | [2] 0.054 | [3] -0.081 | duvelisib 0.022 | gandotinib 0.04 | tozasertib -0.016 | [4] -0.016 | doramapimod -0.053 | ispinesib 0.076

OTUD7B (UniProt Q6GQQ9)
inactive: [1] 0.039 | crizotinib -0.031 | [2] 0.123 | [3] 0 | duvelisib 0.147 | gandotinib 0.062 | tozasertib 0.036 | [4] -0.225 | doramapimod -0.052 | ispinesib 0.156

NUP43 (UniProt Q8NFH3)
inactive: [1] -0.018 | crizotinib -0.02 | [2] -0.018 | [3] -0.203 | duvelisib -0.04 | gandotinib -0.005 | tozasertib 0.007 | [4] -0.02 | doramapimod 0.008 | ispinesib 0.056

NUDC (UniProt Q9Y266)
inactive: [1] 0.048 | crizotinib -0.034 | [2] 0.085 | [3] -0.037 | duvelisib 0.004 | gandotinib -0.074 | tozasertib -0.012 | [4] 0.011 | doramapimod 0.007 | ispinesib -0.006

OXNAD1 (UniProt Q96HP4)
inactive: [1] -0.002 | crizotinib 0.138 | [2] -0.016 | [3] 0.042 | duvelisib 0.045 | gandotinib -0.012 | tozasertib -0.013 | [4] -0.001 | doramapimod 0.019 | ispinesib 0.098

OSBPL9 (UniProt Q96SU4)
inactive: [1] 0.004 | crizotinib -0.165 | [2] -0.027 | [3] 0.323 | duvelisib -0.184 | gandotinib 0.041 | tozasertib 0.17 | [4] 0.066 | doramapimod 0.174 | ispinesib -0.336

ODR4 (UniProt Q5SWX8)
inactive: [1] 0.073 | crizotinib -0.028 | [2] -0.009 | [3] 0.055 | duvelisib 0.002 | gandotinib 0.035 | tozasertib 0.025 | [4] 0.084 | doramapimod 0.01 | ispinesib 0.03

OCRL (UniProt Q01968)
inactive: [1] 0.046 | crizotinib -0.192 | [2] -0.028 | [3] 0.205 | duvelisib 0.03 | gandotinib -0.138 | tozasertib 0.025 | [4] -0.107 | doramapimod 0.053 | ispinesib -0.101

OPTN (UniProt Q96CV9)
inactive: [1] 0.089 | crizotinib 0.132 | [2] -0.045 | [3] -0.068 | duvelisib 0.082 | gandotinib 0.149 | tozasertib 0.127 | [4] -0.007 | doramapimod 0.02 | ispinesib 0.04

OXCT1 (UniProt P55809)
inactive: [1] 0.015 | crizotinib 0.101 | [2] 0.067 | [3] -0.063 | duvelisib -0.004 | gandotinib -0.02 | tozasertib 0.022 | [4] -0.017 | doramapimod -0.003 | ispinesib 0.125

NT5DC3 (UniProt Q86UY8)
inactive: [1] 0.027 | crizotinib 0.087 | [2] 0.032 | [3] -0.038 | duvelisib 0.095 | gandotinib 0.02 | tozasertib -0.017 | [4] 0.038 | doramapimod -0.009 | ispinesib 0.096

OIP5 (UniProt O43482)
inactive: [1] 0.116 | crizotinib 0.026 | [2] 0.042 | [3] -0.109 | duvelisib 0.027 | gandotinib 0.04 | tozasertib 0.047 | [4] -0.07 | doramapimod -0.007 | ispinesib -0.007

P3H1 (UniProt Q32P28)
inactive: [1] 0.06 | crizotinib 0.051 | [2] -0.108 | [3] 0.176 | duvelisib -0.052 | gandotinib 0.128 | tozasertib 0.065 | [4] 0.097 | doramapimod 0.058 | ispinesib -0.025

NUP155 (UniProt O75694)
inactive: [1] -0.01 | crizotinib -0.137 | [2] 0.073 | [3] -0.046 | duvelisib 0.02 | gandotinib -0.132 | tozasertib -0.046 | [4] 0.053 | doramapimod 0.048 | ispinesib -0.055

NUDT5 (UniProt Q9UKK9)
inactive: [1] 0.001 | crizotinib -0.005 | [2] 0.033 | [3] -0.037 | duvelisib -0.043 | gandotinib 0.01 | tozasertib -0.018 | [4] -0.065 | doramapimod -0.043 | ispinesib 0.094

OS9 (UniProt Q13438)
inactive: [1] -0.03 | crizotinib 0.024 | [2] -0.093 | [3] 0.068 | duvelisib -0.008 | gandotinib 0.003 | tozasertib 0 | [4] 0.014 | doramapimod 0.032 | ispinesib -0.062

NUSAP1 (UniProt Q9BXS6)
inactive: [1] -0.003 | crizotinib 0.041 | [2] -0.045 | [3] 0.271 | duvelisib -0.047 | gandotinib 0.071 | tozasertib -0.041 | [4] -0.005 | doramapimod 0.201 | ispinesib -0.063

OSGEP (UniProt Q9NPF4)
inactive: [1] 0.017 | crizotinib 0.038 | [2] -0.013 | [3] -0.04 | duvelisib 0.018 | gandotinib -0.01 | tozasertib -0.024 | [4] -0.015 | doramapimod -0.027 | ispinesib 0.049

NUTF2 (UniProt P61970)
inactive: [1] -0.01 | crizotinib 0.054 | [2] 0.204 | [3] -0.142 | duvelisib 0.162 | gandotinib 0.161 | tozasertib 0.05 | [4] -0.029 | doramapimod -0.01 | ispinesib 0.128

NUP133 (UniProt Q8WUM0)
inactive: [1] 0.035 | crizotinib -0.098 | [2] -0.085 | [3] 0.097 | duvelisib 0.017 | gandotinib 0.043 | tozasertib 0.031 | [4] 0 | doramapimod 0.062 | ispinesib -0.114

PA2G4 (UniProt Q9UQ80)
inactive: [1] 0.039 | crizotinib -0.081 | [2] 0.114 | [3] -0.023 | duvelisib -0.003 | gandotinib 0.016 | tozasertib -0.023 | [4] 0.054 | doramapimod 0.044 | ispinesib -0.005

2 neighbouring entries from above, for reference:
NUSAP1 (UniProt Q9BXS6)
inactive: [1] -0.003 | crizotinib 0.041 | [2] -0.045 | [3] 0.271 | duvelisib -0.047 | gandotinib 0.071 | tozasertib -0.041 | [4] -0.005 | doramapimod 0.201 | ispinesib -0.063

OSGEP (UniProt Q9NPF4)
inactive: [1] 0.017 | crizotinib 0.038 | [2] -0.013 | [3] -0.04 | duvelisib 0.018 | gandotinib -0.01 | tozasertib -0.024 | [4] -0.015 | doramapimod -0.027 | ispinesib 0.049

Remaining list, next part

NUP93 (UniProt Q8N1F7)
inactive: [1] 0.003 | crizotinib -0.135 | [2] 0.026 | [3] 0.025 | duvelisib -0.016 | gandotinib -0.045 | tozasertib 0.168 | [4] 0.063 | doramapimod 0.015 | ispinesib -0.028

NT5C3A (UniProt Q9H0P0)
inactive: [1] 0.093 | crizotinib -0.104 | [2] -0.102 | [3] 0.187 | duvelisib -0.024 | gandotinib 0.034 | tozasertib 0.015 | [4] 0.122 | doramapimod 0.11 | ispinesib -0.206

OCIAD1 (UniProt D6RDK6)
inactive: [1] 0.037 | crizotinib -0.041 | [2] 0.135 | [3] 0.166 | duvelisib 0.17 | gandotinib -0.228 | tozasertib -0.179 | [4] 0.033 | doramapimod 0.121 | ispinesib -0.342

NUDCD1 (UniProt Q96RS6)
inactive: [1] 0.005 | crizotinib 0 | [2] 0.096 | [3] -0.119 | duvelisib 0.065 | gandotinib -0.081 | tozasertib 0 | [4] 0.029 | doramapimod -0.001 | ispinesib 0.04

NT5C2 (UniProt P49902)
inactive: [1] 0.034 | crizotinib 0.029 | [2] 0.065 | [3] -0.031 | duvelisib 0.027 | gandotinib 0.078 | tozasertib -0.063 | [4] -0.002 | doramapimod -0.015 | ispinesib 0.02

NUDT15 (UniProt Q9NV35)
inactive: [1] 0.049 | crizotinib 0.038 | [2] 0.099 | [3] -0.077 | duvelisib 0.054 | gandotinib -0.074 | tozasertib -0.025 | [4] 0.015 | doramapimod -0.026 | ispinesib 0.091

NSMCE3 (UniProt Q96MG7)
inactive: [1] -0.022 | crizotinib 0.084 | [2] -0.015 | [3] 0.09 | duvelisib 0.076 | gandotinib 0.007 | tozasertib -0.048 | [4] 0.034 | doramapimod -0.115 | ispinesib 0.027
